Source: PubChem BioAssay AID210 (DTP/NCI, 2004)
The list is a part of this screen's results and no random one: it gathers tests that were run many times, whatever their T/C, doses with no T/C, and many T/C values between a quarter and a half above the control. Further doses and runs are listed elsewhere. T/C is the treated group as % of the vehicle group. Some doses have a count of surviving animals in place of a T/C: the source files T/C as zero there, which appears to mark a toxic dose or a test without result, not a measured value. Some doses without a T/C left all or most animals alive at the check, yet need not have been tolerated: the source hardly ever lists a survival T/C far under the control, and the zero likely stands for such cases as well. Survivors were counted at the toxicity check, usually on the fifth day, unless a day is given; later deaths do not show. Schedules are NCI's codes, taken here to give the interval after Q, in days (D) or hours (H), and the number of doses after X. Where survival is the endpoint, this PubChem deposit counts one and a half times the control or more as active, and values a quarter to a half above the control carry no call in these data; other NCI protocols may use other cut-offs. Some T/C values carry the count of animals alive at the toxicity check (mostly the fifth day); where none is given, no animal had died by that day.

Test system: CD2F1 mice, ip Colon 26 adenocarcinoma, median survival T/C
Test: NCI In Vivo Anticancer Drug Screen. Data for tumor model Colon 26 Adenocarcinoma (intraperitoneal) in CD2F1 (CDF1) mice
Settings: T/C endpoint: median survival time, higher T/C = longer survival
Experimental: The antitumor activity of compounds was measured in mice bearing transplantable tumors. Survival or tumor size were measured and the results are expressed as the measurement made in the treated group (T) divided by the measurement made in the vehicle treated control group (C). The tumor model used in this assay is Colon 26 Adenocarcinoma (intraperitoneal) in CD2F1 (CDF1) mice

For `O=C(O)c1ccc(C(=O)O)c(C(=O)O)c1.[NH-]C1CCCCC1[NH-].[Pt+2]`, the T/C (dose: 6.0 mg/kg/injection, schedule: Q01DX004 (ip), vehicle: sodium bicarbonate) was 126 % of control, the survivor count (dose: 13.2 mg/kg/injection, schedule: Q01DX001 (ip), vehicle: saline) was 10 of 10 and the survivor count (dose: 19.8 mg/kg/injection, schedule: Q01DX001 (iv), vehicle: saline) was 10 of 10. The T/C (dose: 21.0 mg/kg/injection, schedule: Q04DX002 (ip), vehicle: sodium bicarbonate) was 143 % of control, the survivor count (dose: 29.6 mg/kg/injection, schedule: Q01DX001 (iv), vehicle: saline) was 10 of 10 and the T/C (dose: 30.0 mg/kg/injection, schedule: Q04DX004 (iv), vehicle: sodium bicarbonate) was 135 % of control. The survivor count (dose: 44.4 mg/kg/injection, schedule: Q01DX001 (ip), vehicle: saline) was 9 of 10, the survivor count (dose: 56.0 mg/kg/injection, schedule: Q04DX002 (ip), vehicle: sodium bicarbonate) was 10 of 10 on day 7 and the survivor count (dose: 66.7 mg/kg/injection, schedule: Q01DX001 (ip), vehicle: saline) was 10 of 10. For the same molecule, the survivor count (dose: 66.7 mg/kg/injection, schedule: Q01DX001 (iv), vehicle: saline) was 10 of 10, the survivor count (dose: 90.0 mg/kg/injection, schedule: Q04DX002 (ip), vehicle: sodium bicarbonate) was 5 of 12 on day 7 and the survivor count (dose: 100.0 mg/kg/injection, schedule: Q01DX001 (ip), vehicle: saline) was 1 of 10. For the same molecule, the survivor count (dose: 100.0 mg/kg/injection, schedule: Q01DX001 (iv), vehicle: saline) was 10 of 10.

With `O=P1(NCCCl)OCCCN1CCCl` (stereo not drawn) the T/C (dose: 50.0 mg/kg/injection, schedule: Q04DX003 (ip), vehicle: water) was 129 % of control and the T/C (dose: 100.0 mg/kg/injection, schedule: Q04DX003 (ip), vehicle: water) was 139 % of control.

`OC(CBr)C(O)C(O)C(O)CBr` (stereo not drawn) was tested, and the T/C (dose: 200.0 mg/kg/injection, schedule: Q04DX003 (ip), vehicle: Klucel (hydroxypropylcellulose) (HPC)) was 136 % of control and the T/C (dose: 400.0 mg/kg/injection, schedule: Q04DX003 (ip), vehicle: Klucel (hydroxypropylcellulose) (HPC)) was 149 % of control.

In the case of `O=c1[nH]cc(F)c(=O)[nH]1`, the T/C (dose: 13.0 mg/kg/injection, schedule: Q04DX003 (ip), vehicle: saline) is reported as 125 % of control, the T/C (dose: 21.6 mg/kg/injection, schedule: Q04DX003 (ip), vehicle: saline) is reported as 138 % of control and the T/C (dose: 48.0 mg/kg/injection, schedule: Q04DX003 (sc), vehicle: other) is reported as 131 % of control. The T/C (dose: 49.0 mg/kg/injection, schedule: Q07DX003 (ip), vehicle: saline, evaluated on day 60) was 134 % of control, the T/C (dose: 49.0 mg/kg/injection, schedule: Q07DX003 (ip), vehicle: saline, evaluated on day 70) was 141 % of control and the T/C (dose: 70.0 mg/kg/injection, schedule: Q07DX003 (ip), vehicle: saline) was 142 % of control [8 of 10 alive]. The survivor count (dose: 80.0 mg/kg/injection, schedule: Q04DX003 (sc), vehicle: other) was 7 of 8, the T/C (dose: 100.0 mg/kg/injection, schedule: Q07DX003 (ip), vehicle: saline) was 128 % of control and the T/C (dose: 140.0 mg/kg/injection, schedule: Q07DX003 (ip), vehicle: saline) was 140 % of control.

With `C=C1C(=O)OC2CC1CCC1(C)OC1CCC(C)=CCCC2(C)O` (stereo not drawn) the survivor count (dose: 180.0 mg/kg/injection, schedule: Q04DX002 (ip), vehicle: Klucel (hydroxypropylcellulose) (HPC)) was 6 of 10.

With `CC(C)CCC[C@@H](C)[C@H]1CC[C@H]2[C@@H]3CC=C4C[C@@H](OC(=O)Cc5ccc(N(CCCl)CCCl)cc5)CC[C@]4(C)[C@H]3CC[C@]12C` the T/C (dose: 800.0 mg/kg/injection, schedule: Q04DX002 (ip), vehicle: Klucel (hydroxypropylcellulose) (HPC)) was 149 % of control [9 of 10 alive].

With `COc1cccc2c1C(=O)c1c(O)c3c(c(O)c1C2=O)C[C@@](O)(C(C)=O)C[C@@H]3OC1CC(O)C(O)C(C)O1` (stereo partly drawn) the T/C (dose: 50.0 mg/kg/injection, schedule: Q07DX002 (iv), vehicle: saline) was 131 % of control, the T/C (dose: 80.0 mg/kg/injection, schedule: Q07DX002 (iv), vehicle: saline) was 131 % of control and the survivor count (dose: 130.0 mg/kg/injection, schedule: Q07DX002 (iv), vehicle: saline) was 9 of 10.

In the case of `CN(Cc1ccccc1)c1ccccn1`, the T/C (dose: 6.25 mg/kg/injection, schedule: Q04DX003 (ip), vehicle: saline) is reported as 128 % of control, the T/C (dose: 12.5 mg/kg/injection, schedule: Q04DX003 (ip), vehicle: saline) is reported as 141 % of control and the survivor count (dose: 25.0 mg/kg/injection, schedule: Q04DX003 (ip), vehicle: saline) is reported as 10 of 10. For the same molecule, the survivor count (dose: 50.0 mg/kg/injection, schedule: Q04DX003 (ip), vehicle: saline) was 7 of 10, the survivor count (dose: 100.0 mg/kg/injection, schedule: Q04DX003 (ip), vehicle: saline) was 6 of 10 and the survivor count (dose: 200.0 mg/kg/injection, schedule: Q04DX003 (ip), vehicle: saline) was 2 of 10.

In the case of `CNCCNc1ccc(NCCNC)c2c1C(=O)c1ccccc1C2=O`, the survivor count (dose: 24.0 mg/kg/injection, schedule: Q01DX009 (ip), vehicle: acid diluted with saline) is reported as 10 of 10.

For `O=[N+]([O-])/C=C\c1ccc2c(c1)OCO2`, the survivor count (dose: 12.5 mg/kg/injection, schedule: Q04DX003 (ip), vehicle: Klucel (hydroxypropylcellulose) (HPC)) was 10 of 10.

`COc1cc2c3cc1Oc1c(O)c(OC)cc4c1[C@H](Cc1ccc(cc1)Oc1cc(ccc1O)C[C@H]3N(C)CC2)N(C)CC4` was tested, and the survivor count (dose: 80.0 mg/kg/injection, schedule: Q04DX003 (ip), vehicle: saline with Tween-80) was 10 of 10 and the survivor count (dose: 160.0 mg/kg/injection, schedule: Q04DX003 (ip), vehicle: saline with Tween-80) was 10 of 10.

`CCCNCCNc1ccc(NCCNCCC)c2c1C(=O)c1ccccc1C2=O` was tested, and the survivor count (dose: 32.0 mg/kg/injection, schedule: Q01DX009 (ip), vehicle: acid diluted with saline) was 10 of 10 and the survivor count (dose: 64.0 mg/kg/injection, schedule: Q01DX009 (ip), vehicle: acid diluted with saline) was 1 of 10.
